In paper PMC5996148:
Some of the results follow. For some assays here: The source does not settle which construct or isoform was used.

The chains behind the UniProt entries cited, without tags or fusion partners. Where a name states a change or a piece, a line headed by the entry shows the natural chain unless it says otherwise.
UniProt O00139: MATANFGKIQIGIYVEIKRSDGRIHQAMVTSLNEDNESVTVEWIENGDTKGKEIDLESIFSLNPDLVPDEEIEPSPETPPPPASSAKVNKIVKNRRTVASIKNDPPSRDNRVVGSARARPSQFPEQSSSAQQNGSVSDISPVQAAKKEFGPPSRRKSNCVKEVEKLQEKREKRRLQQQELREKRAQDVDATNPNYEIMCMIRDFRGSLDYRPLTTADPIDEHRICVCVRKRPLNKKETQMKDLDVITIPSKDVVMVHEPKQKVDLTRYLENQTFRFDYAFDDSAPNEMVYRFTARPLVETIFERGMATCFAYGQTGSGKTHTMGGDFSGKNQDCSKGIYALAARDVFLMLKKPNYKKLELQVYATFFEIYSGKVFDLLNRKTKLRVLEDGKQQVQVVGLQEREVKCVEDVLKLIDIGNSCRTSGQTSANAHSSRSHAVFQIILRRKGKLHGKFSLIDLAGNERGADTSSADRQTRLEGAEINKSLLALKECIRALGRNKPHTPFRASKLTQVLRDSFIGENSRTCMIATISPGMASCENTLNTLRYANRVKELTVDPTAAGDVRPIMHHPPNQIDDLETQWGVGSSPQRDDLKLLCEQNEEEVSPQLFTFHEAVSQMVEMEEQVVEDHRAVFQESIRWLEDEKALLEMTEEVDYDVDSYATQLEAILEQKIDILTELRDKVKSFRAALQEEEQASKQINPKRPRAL
UniProt Q6P597: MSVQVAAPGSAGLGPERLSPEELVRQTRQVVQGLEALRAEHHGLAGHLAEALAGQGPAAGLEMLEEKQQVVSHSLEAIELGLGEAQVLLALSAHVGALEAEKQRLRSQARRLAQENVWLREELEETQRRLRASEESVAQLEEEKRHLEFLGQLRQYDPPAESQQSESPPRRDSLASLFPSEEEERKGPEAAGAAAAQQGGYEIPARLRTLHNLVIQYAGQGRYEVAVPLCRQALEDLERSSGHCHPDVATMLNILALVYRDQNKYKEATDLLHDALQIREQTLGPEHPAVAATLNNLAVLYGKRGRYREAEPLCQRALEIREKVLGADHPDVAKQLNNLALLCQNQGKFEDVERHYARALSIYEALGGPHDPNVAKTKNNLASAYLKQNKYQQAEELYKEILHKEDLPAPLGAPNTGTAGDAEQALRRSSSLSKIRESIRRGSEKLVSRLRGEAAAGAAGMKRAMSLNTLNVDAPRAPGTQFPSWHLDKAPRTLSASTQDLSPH
UniProt Q9NSK0: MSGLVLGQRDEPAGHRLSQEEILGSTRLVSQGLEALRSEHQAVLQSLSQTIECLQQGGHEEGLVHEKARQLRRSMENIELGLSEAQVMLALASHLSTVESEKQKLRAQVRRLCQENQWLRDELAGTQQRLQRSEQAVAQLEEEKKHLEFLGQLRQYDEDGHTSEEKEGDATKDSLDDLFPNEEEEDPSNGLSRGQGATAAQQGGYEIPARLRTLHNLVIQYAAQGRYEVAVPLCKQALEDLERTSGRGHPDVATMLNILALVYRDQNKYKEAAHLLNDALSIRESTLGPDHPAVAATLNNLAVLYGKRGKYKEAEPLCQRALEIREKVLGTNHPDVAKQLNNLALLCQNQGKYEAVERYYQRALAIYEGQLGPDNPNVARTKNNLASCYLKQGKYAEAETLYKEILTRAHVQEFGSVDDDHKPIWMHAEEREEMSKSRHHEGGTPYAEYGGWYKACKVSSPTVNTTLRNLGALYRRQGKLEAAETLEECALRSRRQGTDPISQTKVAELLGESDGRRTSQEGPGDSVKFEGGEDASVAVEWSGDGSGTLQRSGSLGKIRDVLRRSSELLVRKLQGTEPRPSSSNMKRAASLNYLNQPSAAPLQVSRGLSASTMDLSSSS
UniProt Q8TBB5: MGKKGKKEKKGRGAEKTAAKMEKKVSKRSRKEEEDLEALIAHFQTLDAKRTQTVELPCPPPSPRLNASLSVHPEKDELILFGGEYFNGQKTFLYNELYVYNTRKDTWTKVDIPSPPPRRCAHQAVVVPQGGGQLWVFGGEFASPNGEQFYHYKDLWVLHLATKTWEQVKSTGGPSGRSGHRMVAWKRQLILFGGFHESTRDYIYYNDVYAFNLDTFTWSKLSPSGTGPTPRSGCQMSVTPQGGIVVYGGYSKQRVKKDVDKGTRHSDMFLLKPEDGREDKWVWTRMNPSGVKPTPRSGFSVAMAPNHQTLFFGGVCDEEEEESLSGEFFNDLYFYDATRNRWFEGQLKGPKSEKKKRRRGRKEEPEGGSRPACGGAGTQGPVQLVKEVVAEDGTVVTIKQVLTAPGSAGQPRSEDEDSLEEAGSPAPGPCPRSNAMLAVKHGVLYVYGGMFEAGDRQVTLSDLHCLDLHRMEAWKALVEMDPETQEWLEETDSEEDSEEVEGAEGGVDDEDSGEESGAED
UniProt Q13601: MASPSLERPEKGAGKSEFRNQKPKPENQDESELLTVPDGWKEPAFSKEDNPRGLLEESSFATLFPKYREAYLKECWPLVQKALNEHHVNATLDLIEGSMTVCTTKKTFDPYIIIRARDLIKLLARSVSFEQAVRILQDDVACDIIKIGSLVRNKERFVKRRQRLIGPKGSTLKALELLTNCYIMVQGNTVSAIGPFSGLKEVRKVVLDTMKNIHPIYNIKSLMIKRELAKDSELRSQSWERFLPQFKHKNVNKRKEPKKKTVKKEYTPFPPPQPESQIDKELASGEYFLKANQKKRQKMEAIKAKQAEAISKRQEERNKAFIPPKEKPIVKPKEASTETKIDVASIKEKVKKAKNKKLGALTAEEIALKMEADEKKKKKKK

Experiments:
Test in all cases: protein microarray (ProtoArray v5.0), streptavidin-Alexa Fluor 647
Settings in all cases: 3'-biotin; 20 mM Tris (pH 7.5), 5 mM MgCl2, 100 mM KCl, 0.1% Tween-20, A/T-rich and random oligonucleotide blockers; temperature not stated; high values mean tight binding
KIF2A = KIF2A (UniProt O00139)
KIFC3 (human) = tested on: KIFC3 (human)
KIS (human) = tested on: KIS (human)
KITLG (human) = tested on: KITLG (human)
KLC3 = KLC3 (UniProt Q6P597)
KLC4 = KLC4 (UniProt Q9NSK0)
KLF12 (human) = tested on: KLF12 (human)
KLHDC1 (human) = tested on: KLHDC1 (human)
KLHDC2 (human) = tested on: KLHDC2 (human)
KLHDC4 = KLHDC4 (UniProt Q8TBB5)
KLHL20 (human) = tested on: KLHL20 (human)
KLHL32 (human) = tested on: KLHL32 (human)
KLK1 (human) = tested on: KLK1 (human)
KLK7 (human) = tested on: KLK7 (human)
KLK9 (human) = tested on: KLK9 (human)
[1] = tested on: KN motif and ankyrin repeat domain-containing protein 4 (human)
KRAS (human) = tested on: KRAS (human)
KRR1 = KRR1 (UniProt Q13601)
KRT8 (human) = tested on: KRT8 (human)
[2] = tested on: Kelch-like ECH-associated protein 1 (human)

**Q.** “GGGGACAGGGGTATGGGGAGGGG [G4-3 biotinylated (CtG)]” was tested. Which binding signal (KIF2A) did it give?
**A.** The binding signal was 3.6 z-score.

**Q.** What about the binding signal (KIFC3 (human)) of the same sequence?
**A.** Its binding signal is -0.336 z-score.

**Q.** And the binding signal (KIS (human))?
**A.** The binding signal was -0.308 z-score.

**Q.** What about the binding signal (KITLG (human)) of the same sequence?
**A.** Its binding signal is -0.317 z-score.

**Q.** What about the binding signal (KLC3) of the same sequence?
**A.** Its binding signal is -0.331 z-score.

**Q.** What about the binding signal (KLC4) of the same sequence?
**A.** Its binding signal is -0.33 z-score.

**Q.** And the binding signal (KLF12 (human))?
**A.** Its binding signal is -0.334 z-score.

**Q.** And the binding signal (KLHDC1 (human))?
**A.** Its binding signal is -0.331 z-score.

**Q.** And the binding signal (KLHDC2 (human))?
**A.** The binding signal was -0.307 z-score.

**Q.** And the binding signal (KLHDC4)?
**A.** Its binding signal is 3.41 z-score.

**Q.** And the binding signal (KLHL20 (human))?
**A.** The binding signal was -0.326 z-score.

**Q.** What about the binding signal (KLHL32 (human)) of the same sequence?
**A.** Its binding signal is -0.342 z-score.

**Q.** And the binding signal (KLK1 (human))?
**A.** The binding signal was -0.317 z-score.

**Q.** And the binding signal (KLK7 (human))?
**A.** The binding signal was -0.312 z-score.

**Q.** What about the binding signal (KLK9 (human)) of the same sequence?
**A.** The binding signal was -0.321 z-score.

**Q.** And the binding signal [1]?
**A.** Its binding signal is -0.337 z-score.

**Q.** What about the binding signal (KRAS (human)) of the same sequence?
**A.** The binding signal was -0.324 z-score.

**Q.** And the binding signal (KRR1)?
**A.** The binding signal was 6.33 z-score.

**Q.** And the binding signal (KRT8 (human))?
**A.** The binding signal was -0.334 z-score.

**Q.** And the binding signal [2]?
**A.** The binding signal was -0.327 z-score.
